The values below come from article PMC5554785.

No constants are given. Whether binding was seen depends on the method and setting. Binding seen in cells or lysates may run through a third protein. A yes stands for co-enrichment or nearness to the bait. Other partners may have been found.

The test deals with T1, germline nuclear Argonaute HRDE-1 (C. elegans) (UniProt Q09249).
T1 sequence: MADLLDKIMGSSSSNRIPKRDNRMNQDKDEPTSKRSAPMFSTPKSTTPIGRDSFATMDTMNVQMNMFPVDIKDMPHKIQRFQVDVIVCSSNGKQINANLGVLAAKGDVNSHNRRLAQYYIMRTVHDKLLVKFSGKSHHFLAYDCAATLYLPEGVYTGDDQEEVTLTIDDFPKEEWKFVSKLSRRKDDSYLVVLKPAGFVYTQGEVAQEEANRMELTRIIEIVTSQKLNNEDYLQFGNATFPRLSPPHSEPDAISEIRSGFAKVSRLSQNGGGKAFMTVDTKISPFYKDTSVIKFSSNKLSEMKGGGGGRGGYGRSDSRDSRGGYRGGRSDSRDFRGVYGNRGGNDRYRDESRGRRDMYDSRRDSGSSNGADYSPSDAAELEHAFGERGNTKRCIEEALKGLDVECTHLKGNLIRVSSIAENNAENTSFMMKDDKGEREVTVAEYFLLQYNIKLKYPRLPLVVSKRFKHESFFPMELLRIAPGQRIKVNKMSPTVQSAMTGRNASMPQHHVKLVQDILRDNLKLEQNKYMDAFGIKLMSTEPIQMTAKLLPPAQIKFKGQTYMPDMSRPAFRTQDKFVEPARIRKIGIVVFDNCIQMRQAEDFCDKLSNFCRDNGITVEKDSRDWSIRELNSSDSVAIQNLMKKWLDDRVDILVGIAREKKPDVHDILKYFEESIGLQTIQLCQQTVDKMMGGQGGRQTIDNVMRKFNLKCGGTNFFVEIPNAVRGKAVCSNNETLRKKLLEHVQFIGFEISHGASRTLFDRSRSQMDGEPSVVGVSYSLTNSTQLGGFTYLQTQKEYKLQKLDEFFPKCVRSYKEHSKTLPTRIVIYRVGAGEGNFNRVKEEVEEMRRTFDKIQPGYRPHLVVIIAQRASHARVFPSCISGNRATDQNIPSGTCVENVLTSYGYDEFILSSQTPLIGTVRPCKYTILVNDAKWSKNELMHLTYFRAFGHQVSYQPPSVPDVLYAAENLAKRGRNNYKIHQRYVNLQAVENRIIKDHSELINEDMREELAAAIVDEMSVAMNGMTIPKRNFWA
In words: affinity purification with mass spectrometry; SILAC IP: anti-HRDE-1 antibody coupled to dynabeads M270, lysates of heavy labelled wild-type and hrde-1(tm1200) mutant young adults, 1 hr at 4°C, washes with 300 mM NaCl, LC-MS/MS, three biological replicates.

For the substance ALY, the binding result was “binds”.
The same measure for “RNA helicase Aquarius/EMB-4 (C. elegans)”: “binds”; for eIF4A3: “binds”.
